Laboratory results: PubChem BioAssay AID1671190 (National Center for Advancing Translational Sciences (NCATS), 2021)
Out of some 580,000 compounds screened, about 6,100 (1.1%) were called active. This list was built around the results that the source calls inconclusive (neither active nor inactive); the mix of calls is not that of the screen. Calls follow the shape of the dose curve; as a rule, active = well fitted inhibition curve with a large enough effect; inconclusive = small, poorly fitted or top-dose-only effect, or another doubt; inactive = no such curve, though single readings can be large or run the other way. Potencies of inconclusive entries are doubtful fits and often do not repeat.

Chains of the proteins cited; added tags and fusions are not shown. Lines headed by an entry give the natural chain unless they say otherwise; changes in a name come on top.
UniProt P18054: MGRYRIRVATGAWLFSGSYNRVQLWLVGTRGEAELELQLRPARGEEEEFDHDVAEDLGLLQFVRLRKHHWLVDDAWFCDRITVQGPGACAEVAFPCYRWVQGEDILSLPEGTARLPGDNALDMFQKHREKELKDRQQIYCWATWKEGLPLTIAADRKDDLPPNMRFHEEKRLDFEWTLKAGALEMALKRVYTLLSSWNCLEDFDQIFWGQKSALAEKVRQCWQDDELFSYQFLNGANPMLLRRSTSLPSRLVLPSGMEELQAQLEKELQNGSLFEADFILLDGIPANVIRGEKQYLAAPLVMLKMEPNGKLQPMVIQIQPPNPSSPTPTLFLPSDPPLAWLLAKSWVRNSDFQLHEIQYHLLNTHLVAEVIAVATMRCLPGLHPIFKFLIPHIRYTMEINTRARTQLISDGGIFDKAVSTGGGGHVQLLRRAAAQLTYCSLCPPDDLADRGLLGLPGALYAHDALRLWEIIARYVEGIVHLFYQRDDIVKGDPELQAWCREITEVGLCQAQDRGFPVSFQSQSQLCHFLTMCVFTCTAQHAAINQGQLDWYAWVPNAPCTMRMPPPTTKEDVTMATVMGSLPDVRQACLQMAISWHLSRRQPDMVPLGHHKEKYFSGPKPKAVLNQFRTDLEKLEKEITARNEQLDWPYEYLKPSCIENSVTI

molecular target: Polyunsaturated fatty acid lipoxygenase ALOX12 (Homo sapiens) (UniProt P18054); test: Primary qHTS assay for inhibitors of human arachidonate 12S-lipoxygenase (ALOX12): Round 2; details: purified 12hLO, xylenol orange hydroperoxide absorbance; series mostly up to 108 µM
Procedure, shortened: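 Hydroperoxide product was detected by ferrous iron/xylenol orange as the 573 to 405 nm absorbance ratio. Arachidonic acid at 40 uM (final) was turned over for 30 min at room temperature by 150 nM human 12hLO, pH 7.0 Hepes buffer, after 15 min compound preincubation.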
Potency is read from the fitted curve at half-maximal effect.

SMILES	Potency
COc1cc(C2C(C(=O)c3ccc(C)o3)=C(O)C(=O)N2c2cc(C)on2)ccc1O (stereo not drawn)	inconclusive: 44.7 µM [inhibitor, partial curve, poor fit]
CCOC(=O)c1cnc2ccc(OC)cc2c1Nc1cccc(C(C)=O)c1	inactive
CC(C)CCNc1nc(N2CCCC2)c2c(c1C#N)CCN(C)C2	inconclusive: 50.1 µM [inhibitor, single point]
Cc1cccc(NC(=O)C2CCN(S(=O)(=O)c3c(C)noc3/C=C/c3ccco3)CC2)c1	inconclusive: 79.4 µM [inhibitor, partial curve, poor fit]
COc1ccccc1N1CCN([C@@H]2[C@H](O)[C@H](CO)O[C@@H]2CNC(=O)c2cccs2)CC1	inconclusive: 17.8 µM [inhibitor, full curve]
COc1ccc2c3c(n(C)c2c1)[C@@H](CO)N(C(C)=O)CC31CN(Cc2nccs2)C1	inconclusive: 44.7 µM [inhibitor, partial curve, poor fit]
O=C(CS(=O)(=O)c1ccccc1)N1CCN(c2ccccc2)CC1	inactive
CN(C)c1ccc(N=c2sc3ccccc3n2C)cc1	inconclusive: 2.24 µM [inhibitor, full curve, poor fit]
CCc1ccccc1Nc1nc(-c2cccnc2)cs1	inactive
CC1(C)CC(=O)C2=C(C1)Nc1[nH]n(-c3ccccc3)c(=O)c1C2c1ccc2c(c1)OCO2 (stereo not drawn)	inconclusive: 44.7 µM [inhibitor, partial curve]
CN(C)CCNC(=O)C1CCN(c2nc(Cl)nc3nc[nH]c23)CC1	inactive
Nc1ccc2c(c1)C(=O)C(=O)c1ccccc1-2	inconclusive: 6.31 µM [inhibitor, partial curve, poor fit]
NCc1c(O)ccc2ccccc12	inconclusive: 25.1 µM [inhibitor, partial curve, poor fit]
CCN(CC)c1ccc(S(=O)(=O)N2CCOCC2)cc1NC(=O)CSC(=S)N1CCCC1	inactive
O=C(CN(CC(=O)Nc1ccc(F)cc1)CC(=O)Nc1ccc(F)cc1)Nc1ccc(F)cc1	active: 12.6 µM
Cc1ccc(S(=O)(=O)Nc2ccc(NC(=O)c3cccs3)cc2)cc1	inconclusive: 50.1 µM [inhibitor, partial curve, poor fit]
COC(=O)c1ccc(-c2ccc(C(c3c(C)[nH][nH]c3=O)c3c(C)[nH][nH]c3=O)o2)cc1	active: 35.5 µM
CC1(C(=O)NS(=O)(=O)c2ccc(F)cc2F)CCN1C(=O)c1ccccc1CCc1ccccc1 (stereo not drawn)	inconclusive: 39.8 µM [inhibitor, partial curve, poor fit]
CCOC(=O)CC(=O)COc1nc2cc3c(nc2o1)CCCC3	inconclusive: 35.5 µM [inhibitor, partial curve, poor fit]
Cc1ccccc1OCC(=O)Nc1ccc2nc(SCC(=O)N3CCOCC3)sc2c1	inactive
COc1ccc(-c2cc3nc(-c4ccccc4)cc(N4CCN(C(=O)c5ccsc5)CC4)n3n2)cc1	inconclusive: 50.1 µM [inhibitor, single point]
Cc1ccc2[nH]c(=O)c(CN(CCc3ccccc3)C(c3nnnn3Cc3ccco3)C(C)C)cc2c1 (stereo not drawn)	active: 11.2 µM
Cc1ccc(S(=O)(=O)N(C)c2ccc(C(=O)NCc3ccccc3F)cc2)cc1	inconclusive: 50.1 µM [inhibitor, partial curve, poor fit]

SMILES	Potency
COc1ccc(NC(=O)N2CC3(CCN(C(=O)c4cccc(F)c4)CC3)C2)cc1	inconclusive: 35.5 µM [inhibitor, single point]
CCCc1nc2ccccc2c(=O)n1/N=C/c1ccc(O)c(O)c1	inconclusive: 0.398 µM [inhibitor, full curve, poor fit]
COc1c(C)cc(NS(=O)(=O)c2ccc3c(c2)OCCO3)cc1C	inconclusive: 141 µM [inhibitor, partial curve, poor fit]
Cc1ccc(Nc2nc(N)c3ccccc3n2)cc1C	inactive
COc1ncc2nc(CCc3ccccc3)c(=O)n(Cc3ccc(F)cc3)c2n1	inconclusive: 100 µM [inhibitor, single point]
O=C(CSc1nnnn1-c1ccccc1)c1ccc(O)cc1O	inconclusive: 12.6 µM [inhibitor, partial curve, poor fit]
Cc1ccc(NC(=O)CC(=O)c2ccccc2)cc1C	inactive
COc1ccc(/C=C2\C(=O)NC(=O)c3ccccc32)cc1OC	inconclusive: 56.2 µM [inhibitor, partial curve, poor fit]
CC(C)(C)c1ccc(C(=O)N/N=C/C=C/c2ccccc2)cc1	inactive
Cc1ccc(C(=O)N(Cc2cc3ccc(F)cc3nc2N2CCC(O)CC2)CC2CCCO2)cc1 (stereo not drawn)	inactive
CCCOc1cccc(C(=O)NC(=S)Nc2cccc(C(F)(F)F)c2)c1	inconclusive: 15.8 µM [inhibitor, partial curve, poor fit]
Cc1cc(C)c(NC(=O)CNS(=O)(=O)c2cccc3cc(C)cnc23)c(C)c1	inconclusive: 10 µM [inhibitor, full curve, poor fit]
Cc1ccc(C)c(S(=O)(=O)Nc2ccc3oc(C)c(C(=O)O)c3c2)c1	inactive
N#C/C(=C/c1sc2ccccc2c1Cl)C(=O)NC1CC1	inconclusive: 5.62 µM [inhibitor, partial curve, poor fit]
Cc1ncsc1-c1nc(CC2CCN(C)CC2)nn1Cc1ccccc1	inactive
CC(O)CNc1ccc(-c2nn(C)c(=O)c3ccccc23)cc1[N+](=O)[O-] (stereo not drawn)	inactive
COc1cccc(C2NC(CC(C)C)(C(=O)O)C3C(=O)N(Cc4ccccc4)C(=O)C23)c1O (stereo not drawn)	inactive
COc1ccc(-c2cc(C(=O)NCCN3CCOCC3)c3ccccc3n2)c(OC)c1	inconclusive: 50.1 µM [inhibitor, partial curve]
COc1cc(C(O)c2nc(-c3cccs3)cs2)ccc1F (stereo not drawn)	inconclusive: 89.1 µM [inhibitor, single point]
Cc1ccc(Sc2cc(C)nc(-c3ccccn3)n2)cc1	inactive
O=C(Cn1c(COc2ccccc2)nc2ccccc21)Nc1cc(Cl)cc(Cl)c1	inconclusive: 11.2 µM [inhibitor, full curve]
CC(C)c1ccc(S(=O)(=O)N2CCN(C(=O)CCc3nc4ccccc4c(=O)[nH]3)CC2)cc1	inconclusive: 79.4 µM [inhibitor, single point]
Cc1ccc(C)c(S(=O)(=O)n2nc(C)c(S(=O)(=O)N3CCCCCC3)c2C)c1	inconclusive: 35.5 µM [inhibitor, partial curve]

Copied from the listing (4 entries):
SMILES	Potency
Cc1ccc(Nc2nc(N)c3ccccc3n2)cc1C	inactive
COc1ncc2nc(CCc3ccccc3)c(=O)n(Cc3ccc(F)cc3)c2n1	inconclusive: 100 µM [inhibitor, single point]
O=C(CSc1nnnn1-c1ccccc1)c1ccc(O)cc1O	inconclusive: 12.6 µM [inhibitor, partial curve, poor fit]
Cc1ccc(NC(=O)CC(=O)c2ccccc2)cc1C	inactive

Continuation:

SMILES	Potency
O=C(COC(=O)c1cc2ccccc2[nH]1)c1ccc[nH]1	inconclusive: 79.4 µM [inhibitor, partial curve, poor fit]
Cn1cccc1-c1cc2n(n1)CCC(=O)N2CC(=O)Nc1ccc(F)cc1Cl	inconclusive: 50.1 µM [inhibitor, partial curve]
CCN1C(=O)c2ccccc2NC1c1cc2ccccc2[nH]c1=O (stereo not drawn)	inconclusive: 7.94 µM [inhibitor, full curve, poor fit]
NC(=O)c1ccsc1NC(=O)c1ccc(S(=O)(=O)N2CCCCC2)cc1	inconclusive: 50.1 µM [inhibitor, partial curve, poor fit]
Cc1cccc(-c2nc(CS(=O)CC(=O)NCCN(Cc3ccccc3)C(C)C)c(C)o2)c1 (stereo not drawn)	inactive
CCC(C(=O)Nc1cccc(C(C)=O)c1)n1c(=O)c(-c2ccccc2NC(C)=O)nc2ccccc21 (stereo not drawn)	inactive
NC(=O)COc1ccc(NC(=O)CC23CC4CC(CC(C4)C2)C3)cc1	inactive
Cc1ccc(S(=O)(=O)N2CCCc3cc(NC(=O)c4cccc(Cl)c4)ccc32)cc1	inactive
COc1ccc(NC(=O)c2ccc3c(c2)C(=O)N(Cc2ccncc2)C3=O)cc1S(N)(=O)=O	inactive
C=CCNCc1ccc(-c2ccc(C(C)O)cc2)o1 (stereo not drawn)	inconclusive: 70.8 µM [inhibitor, single point]
COc1ccccc1CC(=O)Nc1cc2oc3ccccc3c2cc1OC	inactive
COC(=O)c1ccc2c(=O)n(CCCCCC(=O)N3CCN(c4cccc(C)c4C)CC3)c(=O)[nH]c2c1	inconclusive: 112 µM [inhibitor, partial curve, poor fit]
Cc1csc(SCC(=O)Nc2c(C)n(C)n(-c3ccccc3)c2=O)n1	inconclusive: 4.47 µM [inhibitor, full curve, poor fit]
COc1cc(/C=C2\NC(=O)NC2=O)c(Br)cc1OCc1ccccc1F	inactive
O=C1COc2ccc(S(=O)(=O)Nc3ccc(OC(F)(F)F)cc3)cc2N1	inconclusive: 70.8 µM [inhibitor, partial curve, poor fit]
COc1ccccc1Nc1ccc2c(O)cc(S(=O)(=O)O)cc2c1	active: 10 µM
CNC(=O)NC(=O)CN(CCC1CCCCC1)CC(N)=O	inconclusive: 0.562 µM [inhibitor, full curve, poor fit]
O=C(NCc1ccccc1)C(c1cccc2ccccc12)n1c(=O)c(-c2ccco2)nc2ccccc21 (stereo not drawn)	inconclusive: 44.7 µM [inhibitor, partial curve]
COc1cc(NCCCCCCN)c2ncccc2c1OC	inconclusive: 7.94 µM [inhibitor, full curve, poor fit]
Cn1c(N)c(C(=O)Nc2ccccc2F)sc1=S	inactive
Cc1cc(C)n2nc(CC(=O)NNC(=O)c3ccc(N(C)C)cc3)nc2n1	inactive
c1ccc(-n2nnc(-c3nccs3)n2)cc1	inconclusive: 50.1 µM [inhibitor, partial curve, poor fit]
